Drawing on doi:10.1101/2025.06.16.659844, this text covers binding for two substances.

Protein sequences, listed by entry. Tags and fused reporters are not part of them. Lines headed by an entry give the natural chain unless they say otherwise; changes in a name come on top. Residues count along the entry.
UniProt P61960: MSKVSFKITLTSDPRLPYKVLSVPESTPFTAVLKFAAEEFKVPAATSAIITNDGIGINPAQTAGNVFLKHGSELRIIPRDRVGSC
UFM1: residues 2-83 of P61960
UniProt Q9H9Q4: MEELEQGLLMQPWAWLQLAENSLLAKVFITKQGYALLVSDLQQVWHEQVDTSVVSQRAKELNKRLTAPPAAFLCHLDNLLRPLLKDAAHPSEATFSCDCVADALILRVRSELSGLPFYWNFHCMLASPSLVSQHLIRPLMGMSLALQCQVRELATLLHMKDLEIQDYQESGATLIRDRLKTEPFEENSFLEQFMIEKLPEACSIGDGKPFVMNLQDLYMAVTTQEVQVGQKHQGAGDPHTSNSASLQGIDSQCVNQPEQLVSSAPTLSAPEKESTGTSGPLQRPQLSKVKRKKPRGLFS

Test [1] deals with GST-UFM1 (UniProt P61960). The experiment in a line: pull-down.
For test [2], the target named is UFM1 (UniProt P61960). The experiment in a line: NMR titration.

These are yes or no findings as the source states them, for the method shown. For some assays here: Binding seen in cells or lysates may run through a third protein. Some results given as binding are weak or reduced against the parent protein; the word gives no strength.

“GFP-tagged XLF (from UniProt Q9H9Q4 1-299)”: in test [1], the binding result is “binds”.
As for “recombinant XLF (from UniProt Q9H9Q4 1-299)”, in test [2], the binding entry was “binds”.
